Values from PubChem BioAssay AID1053208 (Peter MacCallum Cancer Centre, 2014)

Test: 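Find knock-downs that sensitise mouse osteosarcoma cells to doxorubicin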 (primary screen)
System: mouse osteosarcoma cells, early-passage culture from an engineered mouse model of fibroblastic bone tumour
Reagents: siRNA pool against mouse genes, 40 nM
Duration: about 120 h (48 h before drug, then 72 h with drug)
Treatment: doxorubicin 100 nM for 72 h, roughly 30-40% inhibitory dose
Measurement: 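Luminescent ATP signal taken as viability with or without 100 nM doxorubicin for 72 h; mean of two wells set against non-targeting siRNA and turned into robust z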
Scale: viability z-score with doxorubicin: higher = more viable cells under doxorubicin; viability z-score without drug: higher = more viable cells with knock-down alone
Rule for the call: 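a pool counts as active when its viability z-score with doxorubicin is -2 or below and its z-score without drug lies between -2 and 2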
Shown is one part, drawn at random, of about 17,000 reagents tested. 788 of them (4.7%) were called active. 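Calls rest on z-score classes alone; an extra cut-off of viability at most 70% of control was not applied to them.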 Further read-outs or replicates are left out here.

Dpm1 → combined z-score class = no change with or without drug; viability z-score with doxorubicin = 0.34; viability z-score without drug = -0.17; call = inactive
Lrrk1 → combined z-score class = no change with or without drug; viability z-score with doxorubicin = -0.79; viability z-score without drug = -1.52; call = inactive
Syt14 → combined z-score class = no change with or without drug; viability z-score with doxorubicin = 1.8; viability z-score without drug = 0.51; call = inactive
Slc27a5 → combined z-score class = no change with or without drug; viability z-score with doxorubicin = -1.12; viability z-score without drug = 1.18; call = inactive
Skint2 → combined z-score class = no change with or without drug; viability z-score with doxorubicin = 0.67; viability z-score without drug = 1.01; call = inactive

As entered above:
For “call”, Lrrk1 shows inactive
For “viability z-score without drug”, Slc27a5 shows 1.18

Additional results:
Elovl1 → combined z-score class = no change with or without drug; viability z-score with doxorubicin = 0.34; viability z-score without drug = -0.17; call = inactive
Anxa9 → combined z-score class = no change with or without drug; viability z-score with doxorubicin = 0.34; viability z-score without drug = 0.34; call = inactive
Vav1 → combined z-score class = low cell count with doxorubicin only; viability z-score with doxorubicin = -3.37; viability z-score without drug = -1.18; call = active
Zfp39 → combined z-score class = no change with or without drug; viability z-score with doxorubicin = -1.35; viability z-score without drug = -0.17; call = inactive
Bdkrb1 → combined z-score class = high cell count without drug only; viability z-score with doxorubicin = 0; viability z-score without drug = 2.36; call = inactive
Or2v1 → combined z-score class = no change with or without drug; viability z-score with doxorubicin = -0.34; viability z-score without drug = -0.17; call = inactive
Cyp26a1 → combined z-score class = no change with or without drug; viability z-score with doxorubicin = 0.34; viability z-score without drug = 0.17; call = inactive
